# Read-outs that look alike come from different tables or passages of the source. For at least one compound, name, drawing or mass did not settle the structure. Square brackets hold non-standard residues; d marks the D form. Peptide text beside a SMILES is read from it. pS = N[C@@H](COP(=O)(O)O)C(=O)O
# Amino acid sequences for entries named in this document (tags omitted). A change or cut given only in a name is not applied to a line headed by its entry.
# UniProt P31947: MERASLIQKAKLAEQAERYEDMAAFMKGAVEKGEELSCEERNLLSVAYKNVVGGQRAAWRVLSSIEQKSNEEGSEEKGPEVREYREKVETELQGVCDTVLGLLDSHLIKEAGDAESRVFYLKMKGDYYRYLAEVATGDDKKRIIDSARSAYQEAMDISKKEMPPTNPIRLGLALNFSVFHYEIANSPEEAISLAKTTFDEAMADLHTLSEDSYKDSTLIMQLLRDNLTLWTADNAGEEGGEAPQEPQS
# Legend:
# [1] = target: T1, 14-3-3σ•Task-3 ctp interaction (Homo sapiens, UniProt P31947); assay: Fluorescence polarization (FP) of fluorescein-labeled Task-3 ctp titrated with 14-3-3σ; assay type: binding
# T1 construct: made in house; host or cells: E. coli BL21
# Experimental: (§1) Replicated in this example was Ottmann's characterization of interactions between 14-3-3σ and a synthetic hexapeptide of Task-3 containing the putative C-terminal 14-3-3-interaction motif KRRK-pS-V (Task-3 ctp). (Anders, C. et al., Chem. Biol. 2013, 13, 583-593).
# (§2) Recombinant human 14-3-3σ was prepared using a bacterial expression protocol, which routinely produced 15 mg/L of purified protein. Recombinant 14-3-3σ was expressed in BL21 E. Coli cells and purified by Ni-affinity chromatography.
# The titration protocol was adapted to 96-well plate format using fluorescence polarization (FP) experiments. FP measurements of fluorescein-labeled Task-3 ctp, in the absence and presence of 100 μM fusicoccin A (1), titrated with 14-3-3σ were used to obtain the apparent Kd of the 14-3-3σ•Task-3 ctp interaction. […] Also collected were FP measurements of fluorescein-labeled c-Raf peptide, in the absence and presence of 100 μM fusicoccin A (1), titrated with 14-3-3σ to obtain the apparent Kd of the 14-3-3σ•c-Raf peptide interaction.
# Error bars indicate the mean±SD of three independent experiments.
# In view of the foregoing control data, a library of synthetic derivatives, including 8a-j, 9-11, was screened for functional interactions 14-3-3σ•Task-3 ctp complex. […]
# 14-3-3σ•Task-3 ctp = target: T2, 14-3-3σ•Task-3 ctp (Homo sapiens, UniProt P31947); assay: Isothermal titration calorimetry (ITC) of Task-3 ctp with 14-3-3σ in the presence and absence of fusicoccin A; settings: absence of fusicoccin A, read-out: Kd of Task-3 ctp binding to 14-3-3σ
# T2 construct: made in house; host or cells: E. coli BL21
# Experimental: as §1, §2
# This was determined by the association of ITC binding isotherms for Task-3 ctp with 14-3-3σ in the presence and absence of 100 μM of fusicoccin A (1).
structure (smiles),measurement,setting,value
CC(C)[C@H](NC(=O)[C@H](COP(=O)(O)O)NC(=O)[C@H](CCCCN)NC(=O)[C@H](CCCNC(=N)N)NC(=O)[C@H](CCCNC(=N)N)NC(=O)[C@@H](N)CCCCN)C(=O)O [Task-3 ctp] (H-KRRK[pS]V-OH; N-terminus and C-terminus assumed),Kd,"[1]; DMSO (10%) in buffer, no compound, read-out: apparent Kd of Task-3 ctp to 14-3-3σ (control)",1.82 ± 0.22 µM
same,Kd,"[1]; fluorescein-labeled Task-3 ctp, absence of fusicoccin A, read-out: apparent Kd of the 14-3-3σ•Task-3 ctp interaction",4.4 ± 0.8 µM
same,Kd,14-3-3σ•Task-3 ctp,3.8 ± 0.8 µM

# — patent publication US10253038B2, “Fusicoccane derivatives and methods” (Florida State University Research Foundation, Inc., priority 2017, dated 2019)
